# Screen size: about 340,000 compounds; about 170 (0.05%) were called active. The shares of active, inactive and inconclusive entries below differ from those in the screen. Calls come from the whole dose curve; as a rule, active = well fitted inhibition curve with a large enough effect in the signal ratio, with a control signal flat (not every such curve was filed as active); inconclusive = small, poorly fitted or top-dose-only effect, or effect the other way, or a change in a side signal; inactive = flat fitted curve, though single readings scatter; the % refers to the signal ratio. Where the call is inconclusive, the potency comes from a doubtful curve fit.
# Test: qHTS Assay to Find Inhibitors of Chronic Active B-Cell Receptor Signaling;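 for activity change, negative = inhibition: plate controls were basal doxycycline-induced cells for no effect and cells given 10 µM MG132 for full effect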
# Settings: ABC-DLBCL IkBa-CBG/CBR reporter, luminescence ratio (green luciferase fused to IkBa over red control in TMD8 lymphoma cells), 4 h; activity change, negative = inhibition: at 46.1 µM (top of the series) unless noted
# How it was run: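 TMD8 human ABC-DLBCL cells with doxycycline-inducible IκBα–green luciferase fusion and unfused red luciferase, in 0.5% FBS medium; compounds up to 46 uM, 4 h at 37C. Green/red luminescence ratio, filter-overlap corrected, fitted to concentration-response curves.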
# Potency is the fitted concentration of half-maximal effect.
SMILES,"activity change, negative = inhibition",Potency
CN(c1ccccc1)c1nc(-n2ccnc2)nc(-n2ccnc2)n1,inactive,
CC(C)n1c(=O)[nH]c2cc(C(=O)Nc3ccccc3)ccc21,,"inconclusive: 17.8 µM [falling, single point]"
Cc1cc(OCC(=O)OCC(=O)N2c3ccccc3NC(=O)C2(C)C)ccc1Cl,inactive,
CCn1c(NCc2cc(OC)c(OC)c(OC)c2)nc2ccccc21,inconclusive: -6.49%,
CCn1cc(C(=O)NCCCOC)c2cc(OC)c(OC)cc2c1=O,inconclusive: -0.607%,
CCOc1cc(C(=O)Nc2nnc(CC)s2)ccc1OCC(=O)N1CCOCC1,inconclusive: 5.36%,
Cc1cc(C)cc(NC(=O)Cn2c(=O)oc3cc(S(=O)(=O)N4CC(C)CC(C)C4)ccc32)c1 (centres undefined),inactive,
COc1cc(-c2nnc(-c3ccc(N4CCOCC4)cc3)o2)cc(OC)c1OC,inactive,
COC(=O)c1cc(C)cc(=O)o1,inconclusive: 3.52%,
NS(=O)(=O)c1ccc(NC(=S)NNC(=O)c2cccs2)cc1,,"inconclusive: 22.4 µM [falling, single point]"
Cc1cc(C)n2c(Nc3ccc4c(c3)OCCO4)c(-c3ccco3)nc2n1,inconclusive: 5.93%,
CCC(=O)c1cc(-c2nc3ccccc3n2C)n(C)c1,inactive,
Cc1cccc(NC(=O)CN(C)S(=O)(=O)c2cccc3cccnc23)c1C,inconclusive: -0.772%,
O=C(NC1=NCCS1)c1ccc(OCC2CCCO2)cc1 (centres undefined),inactive,
Cc1ccc2c(c1)[C@H]1[C@H](CO2)[C@H](c2ccccc2)[C@]2(C)C(=O)Nc3cc(F)c(F)cc3C(=O)N12,inconclusive: 5.81%,
Nc1nnnn1/N=C/c1cc([N+](=O)[O-])ccc1O,,"inconclusive: 35.5 µM [falling, single point]"
CCOc1cc(/C=N/Nc2cc(C)nc3ccc(C)cc23)ccc1O,inconclusive: -19.2%,
Cc1ccc(NC(=O)NNC(=O)c2cc3ccccc3cc2O)c(C)c1,inconclusive: 15.6%,
COc1ccc(-c2nnc(Nc3nc4c(OC)cccc4s3)o2)cc1,,"inconclusive: 22.4 µM [falling, partial curve]"
COC(=O)[C@@]12CCCN1[C@H](c1ccc(-c3ccccc3)cc1)[C@@H]1C(=O)N(C)C(=O)[C@@H]12,inactive,

SMILES,"activity change, negative = inhibition",Potency
CCOC(=O)C1=C(C)NC2=C(C(=O)CC(c3cccs3)C2)C1c1cccs1 (centres undefined),,"inconclusive: 32.6 µM [falling, single point]"
O=C(Nc1ccc(Cl)cc1)c1ccc(OC2CSC2)cc1,inactive,
Cn1cc(C(=O)C(=O)NC2CCCCC2)c2ccccc21,inconclusive: 160%,
CN(C)CCCn1c(N)c(C#N)c2nc3ccccc3nc21,inconclusive: 7.17%,
COc1ccc(C2CC(=O)c3cnc(NC(=O)c4ccccc4OC)nc3C2)c(OC)c1 (centres undefined),,"inconclusive: 9.2 µM [falling, partial curve]"
CN(c1cccc(NC(=O)c2ccc(C(C)(C)C)cc2)c1)S(C)(=O)=O,,"inconclusive: 15.8 µM [falling, partial curve]"
O=C(/C=C/c1ccccc1)Nc1cccnc1Cl,,"inconclusive: 25.1 µM [falling, partial curve]"
N=c1n(CCO)c2ccccc2n1CCOc1ccc(Cl)cc1Cl,,"inconclusive: 35.5 µM [falling, single point]"
CCn1c2ccccc2c2cc(/C=N/NC(=O)c3ccc(O)cc3)ccc21,,"inconclusive: 4.61 µM [falling, partial curve, poor fit]"
COc1cc2c(cc1OC)CN(C(=O)CCCOc1ccc(Cl)cc1Cl)CC2,,"inconclusive: 5.8 µM [rising, single point]"
Nc1cccn2c(-c3ccc(Cl)cc3)cnc12,inconclusive: -10.9%,
Cn1ncc(Cl)c1C(=O)NCc1cc(C(C)(C)C)n[nH]1,inactive,
CSc1nc(N)nc(SC2C=CCCC2)c1C#N (centres undefined),inconclusive: 8.81%,
NC(=O)c1sc2nc(-c3ccco3)ccc2c1N,inconclusive: -2.74%,
Cc1cc(C)cc(N(CC(=O)NC2CCCCC2)C(=O)c2ccc(C)s2)c1,inactive,
O=C(CNC(=O)c1ccccc1)OCc1nnc(-c2ccccc2)o1,inconclusive: 15.3%,
CCCc1cc(N2CCOCC2)n2ncc(-c3ccccc3)c2n1,inconclusive: 9.13%,
COc1ccc(CC(=O)Nc2nnc(-c3cccc([N+](=O)[O-])c3)s2)cc1,inconclusive: 8.07%,
CCOC(=O)c1sc(-c2ccc(Br)cc2)cc1N,inconclusive: -0.698%,

# Compounds listed so far containing an NH in an aromatic ring, in the order listed:
SMILES,"activity change, negative = inhibition",Potency
CC(C)n1c(=O)[nH]c2cc(C(=O)Nc3ccccc3)ccc21,,"inconclusive: 17.8 µM [falling, single point]"
Cn1ncc(Cl)c1C(=O)NCc1cc(C(C)(C)C)n[nH]1,inactive,
